Some of the results follow.

Chains of the proteins cited; added tags and fusions are not shown. Lines headed by an entry give the natural chain unless they say otherwise; changes in a name come on top.
UniProt Q9NUP7: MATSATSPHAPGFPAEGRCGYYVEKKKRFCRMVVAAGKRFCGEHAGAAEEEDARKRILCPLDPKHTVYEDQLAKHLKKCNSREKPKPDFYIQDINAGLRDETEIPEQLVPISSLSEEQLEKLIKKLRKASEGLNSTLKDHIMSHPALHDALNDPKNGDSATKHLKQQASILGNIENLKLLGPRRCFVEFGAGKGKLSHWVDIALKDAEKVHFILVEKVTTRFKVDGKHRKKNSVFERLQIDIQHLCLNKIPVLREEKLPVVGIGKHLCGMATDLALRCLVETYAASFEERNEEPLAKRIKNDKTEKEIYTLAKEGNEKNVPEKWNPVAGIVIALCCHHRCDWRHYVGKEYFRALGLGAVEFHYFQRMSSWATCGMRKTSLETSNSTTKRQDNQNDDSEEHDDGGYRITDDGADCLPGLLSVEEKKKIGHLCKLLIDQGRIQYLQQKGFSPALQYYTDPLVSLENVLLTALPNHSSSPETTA
UniProt Q9BV19: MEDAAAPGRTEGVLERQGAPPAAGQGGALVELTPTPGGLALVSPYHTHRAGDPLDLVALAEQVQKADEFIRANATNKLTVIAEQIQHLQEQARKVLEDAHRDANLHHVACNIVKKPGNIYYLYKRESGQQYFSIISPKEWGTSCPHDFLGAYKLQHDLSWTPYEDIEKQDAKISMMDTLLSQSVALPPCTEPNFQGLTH
UniProt Q9BU76: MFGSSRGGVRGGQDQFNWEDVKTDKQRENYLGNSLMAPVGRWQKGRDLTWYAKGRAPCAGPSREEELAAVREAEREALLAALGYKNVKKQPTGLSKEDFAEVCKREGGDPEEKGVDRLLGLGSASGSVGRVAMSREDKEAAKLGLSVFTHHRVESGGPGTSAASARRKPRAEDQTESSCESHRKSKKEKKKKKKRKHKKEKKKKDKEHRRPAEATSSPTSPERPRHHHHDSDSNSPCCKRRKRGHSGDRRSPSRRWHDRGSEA
UniProt Q9UBS9: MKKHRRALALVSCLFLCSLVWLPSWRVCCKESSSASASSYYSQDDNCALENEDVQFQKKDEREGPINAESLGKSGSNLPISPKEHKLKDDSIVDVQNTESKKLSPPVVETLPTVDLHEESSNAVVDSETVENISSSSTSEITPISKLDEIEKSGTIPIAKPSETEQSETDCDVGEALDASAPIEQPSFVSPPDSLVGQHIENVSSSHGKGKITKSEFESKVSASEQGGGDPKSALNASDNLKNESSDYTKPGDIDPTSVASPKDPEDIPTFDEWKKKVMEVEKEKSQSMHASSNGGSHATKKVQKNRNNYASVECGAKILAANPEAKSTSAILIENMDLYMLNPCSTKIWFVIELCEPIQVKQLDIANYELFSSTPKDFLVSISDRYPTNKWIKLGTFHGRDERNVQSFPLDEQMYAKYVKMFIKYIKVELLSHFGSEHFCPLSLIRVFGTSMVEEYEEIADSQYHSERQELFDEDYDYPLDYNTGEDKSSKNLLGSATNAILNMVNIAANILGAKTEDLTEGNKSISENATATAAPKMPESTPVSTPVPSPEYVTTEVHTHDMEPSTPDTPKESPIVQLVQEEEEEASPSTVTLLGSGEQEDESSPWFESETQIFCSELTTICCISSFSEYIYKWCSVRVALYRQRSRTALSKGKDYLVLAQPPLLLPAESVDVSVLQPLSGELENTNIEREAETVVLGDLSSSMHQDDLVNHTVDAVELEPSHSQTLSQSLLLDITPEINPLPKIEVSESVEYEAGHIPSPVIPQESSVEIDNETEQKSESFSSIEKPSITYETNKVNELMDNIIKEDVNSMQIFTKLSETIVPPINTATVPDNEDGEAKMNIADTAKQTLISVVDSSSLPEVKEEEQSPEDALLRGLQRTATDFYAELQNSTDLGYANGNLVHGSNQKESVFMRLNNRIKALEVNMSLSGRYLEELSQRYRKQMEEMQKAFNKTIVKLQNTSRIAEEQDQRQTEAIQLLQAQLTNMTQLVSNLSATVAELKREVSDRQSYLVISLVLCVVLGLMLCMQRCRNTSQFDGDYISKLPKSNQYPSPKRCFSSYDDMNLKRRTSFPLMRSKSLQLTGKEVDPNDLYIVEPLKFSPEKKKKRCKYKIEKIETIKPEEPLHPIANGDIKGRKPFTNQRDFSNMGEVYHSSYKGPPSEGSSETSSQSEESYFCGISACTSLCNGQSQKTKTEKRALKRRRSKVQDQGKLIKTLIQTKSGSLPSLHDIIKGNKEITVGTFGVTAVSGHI
UniProt Q9UK39: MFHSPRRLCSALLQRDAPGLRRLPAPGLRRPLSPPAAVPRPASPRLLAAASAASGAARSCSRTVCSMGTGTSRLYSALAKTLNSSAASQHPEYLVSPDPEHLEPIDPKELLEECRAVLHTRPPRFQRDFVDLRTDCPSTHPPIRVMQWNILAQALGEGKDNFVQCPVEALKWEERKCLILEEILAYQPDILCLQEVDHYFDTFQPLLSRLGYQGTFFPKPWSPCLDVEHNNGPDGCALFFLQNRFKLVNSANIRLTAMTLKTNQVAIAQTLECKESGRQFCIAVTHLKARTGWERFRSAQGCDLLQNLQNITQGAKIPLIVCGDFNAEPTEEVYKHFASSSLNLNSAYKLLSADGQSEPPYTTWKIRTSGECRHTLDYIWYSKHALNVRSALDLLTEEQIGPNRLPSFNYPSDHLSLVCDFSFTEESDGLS
UniProt Q9NS00: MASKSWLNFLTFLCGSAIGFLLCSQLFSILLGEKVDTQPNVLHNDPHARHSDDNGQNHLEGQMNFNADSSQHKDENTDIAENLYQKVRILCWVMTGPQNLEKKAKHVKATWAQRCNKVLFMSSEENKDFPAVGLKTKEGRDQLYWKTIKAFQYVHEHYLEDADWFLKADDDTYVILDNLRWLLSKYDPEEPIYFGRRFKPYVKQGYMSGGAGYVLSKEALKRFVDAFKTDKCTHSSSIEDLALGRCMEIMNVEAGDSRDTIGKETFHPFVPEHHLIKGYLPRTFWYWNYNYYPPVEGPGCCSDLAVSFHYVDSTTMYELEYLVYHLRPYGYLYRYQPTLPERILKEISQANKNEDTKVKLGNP
UniProt Q629K1: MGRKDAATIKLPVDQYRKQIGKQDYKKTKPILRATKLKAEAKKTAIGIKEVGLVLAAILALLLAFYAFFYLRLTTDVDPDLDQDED
UniProt Q75N03: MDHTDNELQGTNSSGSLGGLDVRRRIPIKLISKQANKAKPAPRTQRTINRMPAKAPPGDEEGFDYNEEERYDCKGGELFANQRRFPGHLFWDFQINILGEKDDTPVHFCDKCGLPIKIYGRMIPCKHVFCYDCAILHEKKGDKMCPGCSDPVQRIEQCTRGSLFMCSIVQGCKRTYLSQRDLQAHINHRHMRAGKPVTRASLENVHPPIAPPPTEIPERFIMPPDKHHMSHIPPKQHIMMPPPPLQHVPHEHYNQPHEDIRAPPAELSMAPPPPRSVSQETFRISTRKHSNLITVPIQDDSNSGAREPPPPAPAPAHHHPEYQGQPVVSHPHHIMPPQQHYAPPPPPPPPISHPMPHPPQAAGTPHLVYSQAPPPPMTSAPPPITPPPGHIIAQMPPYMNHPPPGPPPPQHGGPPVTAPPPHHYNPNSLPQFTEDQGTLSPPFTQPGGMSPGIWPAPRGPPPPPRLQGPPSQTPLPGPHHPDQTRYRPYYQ
UniProt O14618: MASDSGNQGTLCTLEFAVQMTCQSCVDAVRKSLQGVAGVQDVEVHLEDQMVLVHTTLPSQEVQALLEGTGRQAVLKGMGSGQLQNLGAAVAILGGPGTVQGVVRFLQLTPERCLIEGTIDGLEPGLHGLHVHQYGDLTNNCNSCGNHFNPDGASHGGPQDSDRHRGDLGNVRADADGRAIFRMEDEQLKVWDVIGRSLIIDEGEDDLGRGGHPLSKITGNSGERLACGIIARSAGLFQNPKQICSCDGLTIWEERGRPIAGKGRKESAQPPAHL
UniProt Q9NPF0: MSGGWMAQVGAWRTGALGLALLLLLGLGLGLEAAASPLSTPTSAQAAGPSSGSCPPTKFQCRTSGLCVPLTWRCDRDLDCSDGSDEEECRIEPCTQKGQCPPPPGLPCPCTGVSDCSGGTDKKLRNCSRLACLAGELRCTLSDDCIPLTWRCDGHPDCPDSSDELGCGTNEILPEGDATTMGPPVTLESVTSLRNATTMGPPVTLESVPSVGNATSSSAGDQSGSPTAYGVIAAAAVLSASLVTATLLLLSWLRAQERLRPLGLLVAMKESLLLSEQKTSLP
UniProt P86791: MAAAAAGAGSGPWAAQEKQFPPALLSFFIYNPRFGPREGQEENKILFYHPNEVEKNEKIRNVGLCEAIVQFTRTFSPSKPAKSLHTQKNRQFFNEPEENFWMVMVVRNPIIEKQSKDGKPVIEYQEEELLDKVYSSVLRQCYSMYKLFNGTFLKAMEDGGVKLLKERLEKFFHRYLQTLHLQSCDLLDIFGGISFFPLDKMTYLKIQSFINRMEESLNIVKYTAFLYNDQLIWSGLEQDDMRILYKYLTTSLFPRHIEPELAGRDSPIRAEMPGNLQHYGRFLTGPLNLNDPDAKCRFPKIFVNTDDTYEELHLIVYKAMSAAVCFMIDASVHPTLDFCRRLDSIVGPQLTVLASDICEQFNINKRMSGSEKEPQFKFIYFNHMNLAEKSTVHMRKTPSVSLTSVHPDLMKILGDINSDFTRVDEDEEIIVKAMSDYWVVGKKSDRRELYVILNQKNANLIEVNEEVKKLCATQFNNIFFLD
UniProt Q9BRJ6: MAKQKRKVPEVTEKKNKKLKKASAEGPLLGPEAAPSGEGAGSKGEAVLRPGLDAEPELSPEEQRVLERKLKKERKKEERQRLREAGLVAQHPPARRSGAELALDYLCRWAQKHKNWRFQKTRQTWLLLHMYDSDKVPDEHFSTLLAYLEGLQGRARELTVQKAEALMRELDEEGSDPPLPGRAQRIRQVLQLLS
UniProt Q6P4E1: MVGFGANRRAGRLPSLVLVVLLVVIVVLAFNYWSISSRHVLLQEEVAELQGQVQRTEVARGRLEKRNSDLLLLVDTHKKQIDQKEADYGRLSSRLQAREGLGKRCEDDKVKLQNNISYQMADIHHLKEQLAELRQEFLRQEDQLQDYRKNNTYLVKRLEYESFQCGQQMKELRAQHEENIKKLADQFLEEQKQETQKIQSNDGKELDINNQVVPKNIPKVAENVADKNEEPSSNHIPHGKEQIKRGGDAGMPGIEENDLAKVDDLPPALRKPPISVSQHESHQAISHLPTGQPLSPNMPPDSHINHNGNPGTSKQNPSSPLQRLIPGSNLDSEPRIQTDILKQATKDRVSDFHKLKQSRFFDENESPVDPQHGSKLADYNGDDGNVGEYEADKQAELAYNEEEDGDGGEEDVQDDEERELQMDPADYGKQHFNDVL
UniProt P40121: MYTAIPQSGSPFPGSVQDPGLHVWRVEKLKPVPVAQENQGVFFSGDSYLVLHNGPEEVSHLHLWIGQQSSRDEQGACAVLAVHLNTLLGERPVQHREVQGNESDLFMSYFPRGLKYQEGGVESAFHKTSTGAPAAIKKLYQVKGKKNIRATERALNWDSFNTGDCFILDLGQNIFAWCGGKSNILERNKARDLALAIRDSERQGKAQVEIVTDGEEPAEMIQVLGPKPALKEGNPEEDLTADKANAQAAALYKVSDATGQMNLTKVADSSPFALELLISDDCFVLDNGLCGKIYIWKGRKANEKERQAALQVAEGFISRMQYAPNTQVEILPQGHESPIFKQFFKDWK
UniProt O43852: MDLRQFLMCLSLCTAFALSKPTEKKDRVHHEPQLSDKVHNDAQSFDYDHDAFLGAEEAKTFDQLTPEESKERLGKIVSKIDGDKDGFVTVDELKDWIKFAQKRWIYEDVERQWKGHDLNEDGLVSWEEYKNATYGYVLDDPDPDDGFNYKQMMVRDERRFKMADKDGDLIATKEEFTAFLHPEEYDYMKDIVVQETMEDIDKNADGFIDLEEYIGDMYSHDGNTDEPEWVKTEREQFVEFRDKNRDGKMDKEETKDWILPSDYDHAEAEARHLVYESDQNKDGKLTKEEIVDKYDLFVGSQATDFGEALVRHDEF
UniProt Q96EA4: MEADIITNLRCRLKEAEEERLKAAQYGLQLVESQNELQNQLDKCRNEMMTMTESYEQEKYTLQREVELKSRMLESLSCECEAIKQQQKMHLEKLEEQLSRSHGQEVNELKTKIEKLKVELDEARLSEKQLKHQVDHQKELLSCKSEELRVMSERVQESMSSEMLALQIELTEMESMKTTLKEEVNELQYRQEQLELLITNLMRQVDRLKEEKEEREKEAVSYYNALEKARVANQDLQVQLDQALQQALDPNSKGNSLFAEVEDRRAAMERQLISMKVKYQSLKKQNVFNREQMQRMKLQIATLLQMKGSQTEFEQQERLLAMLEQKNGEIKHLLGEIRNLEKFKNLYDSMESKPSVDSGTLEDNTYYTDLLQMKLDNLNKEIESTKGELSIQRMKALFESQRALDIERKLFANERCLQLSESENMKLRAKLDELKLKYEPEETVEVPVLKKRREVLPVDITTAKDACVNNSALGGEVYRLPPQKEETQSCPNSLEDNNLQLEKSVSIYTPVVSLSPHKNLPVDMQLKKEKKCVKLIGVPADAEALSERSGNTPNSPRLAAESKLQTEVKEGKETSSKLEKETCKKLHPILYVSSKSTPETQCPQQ

Compound in this assay: COc1ccc(Cn2ccc3cc(C)c(C(=O)NO)cc32)cc1
Kind of assay: dose-dependent thermal stabilisation call (2D-TPP, DLPTP, 10% FDR) (binary (1 = stabilised)); higher = stabilised by the compound. The following applies: system: HL-60 intact cells; concentration range 0.04-10 µM. Here is the method:
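2D thermal proteome profiling in intact HL-60 cells treated with BRD-3811 (0, 0.04, 0.29, 2, 10 uM) for 90 min at 37 C, then heated 3 min at one of 12 temperatures (42-63.9 C). Soluble protein was quantified by TMT10 MS. The value is the DLPTP call of the paper: dose-dependent thermal stabilisation over all temperatures at 10% FDR (F-test of a dose-response against a flat model); one experiment, one call per tested protein.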
Take CCDC76 (UniProt Q9NUP7): the “dose-dependent thermal stabilisation call” value is inactive: 0. Consider C6ORF162 (UniProt Q96KF7), for which the “dose-dependent thermal stabilisation call” value was inactive: 0. Take CCDC109B (UniProt Q9NWR8): the “dose-dependent thermal stabilisation call” value was inactive: 0. With C1ORF50 (UniProt Q9BV19), the “dose-dependent thermal stabilisation call” value was inactive: 0. As to CD302 (UniProt Q8IX05), the “dose-dependent thermal stabilisation call” value is inactive: 0.

As for CCDC104 (UniProt Q96G28), the “dose-dependent thermal stabilisation call” value was inactive: 0. In the case of CA2 (UniProt P00918), the “dose-dependent thermal stabilisation call” value was inactive: 0. Turning to C1ORF35 (UniProt Q9BU76), the “dose-dependent thermal stabilisation call” value was inactive: 0. In the case of C20ORF3 (UniProt Q9HDC9), the “dose-dependent thermal stabilisation call” value is inactive: 0. The same measure for C1ORF9 (UniProt Q9UBS9): inactive: 0; for CCRN4L (UniProt Q9UK39): inactive: 0; for C1GALT1 (UniProt Q9NS00): inactive: 0. CAPNS1 (UniProt P04632): the “dose-dependent thermal stabilisation call” value was inactive: 0. As to C9ORF86 (UniProt Q3YEC7), the “dose-dependent thermal stabilisation call” value is inactive: 0. The same measure for C8ORF83 (UniProt Q629K1): inactive: 0. Turning to C20ORF11 (UniProt Q9NWU2), the “dose-dependent thermal stabilisation call” value is inactive: 0. Then CBLL1 (UniProt Q75N03), with inactive: 0. For the target CD3EAP (UniProt O15446), the “dose-dependent thermal stabilisation call” value is inactive: 0. Consider C7ORF26 (UniProt Q96N11), for which the “dose-dependent thermal stabilisation call” value is inactive: 0. With CCT4 (UniProt P50991), the “dose-dependent thermal stabilisation call” value is inactive: 0. Consider CCS (UniProt O14618), for which the “dose-dependent thermal stabilisation call” value is inactive: 0.

Turning to CCBL2 (UniProt Q6YP21), the “dose-dependent thermal stabilisation call” value was inactive: 0. Then C9ORF23 (UniProt Q8N5L8), with inactive: 0; and C21ORF66 (UniProt Q9Y5B6), with inactive: 0.

For the target CD320 (UniProt Q9NPF0), the “dose-dependent thermal stabilisation call” value was inactive: 0.

C7ORF28A (UniProt P86791): the “dose-dependent thermal stabilisation call” value was inactive: 0.

On to C3ORF64 (UniProt Q5NDL2), for which the “dose-dependent thermal stabilisation call” value is inactive: 0. The same measure for C7ORF50 (UniProt Q9BRJ6): inactive: 0; for C4ORF14 (UniProt Q8NC60): inactive: 0. As for CASC4 (UniProt Q6P4E1), the “dose-dependent thermal stabilisation call” value is inactive: 0. Then C4ORF43 (UniProt Q96EY4), with inactive: 0; and CAPG (UniProt P40121), with inactive: 0; and CALU (UniProt O43852), with inactive: 0. On to C7ORF20 (UniProt Q7L5D6), for which the “dose-dependent thermal stabilisation call” value was inactive: 0. Then C19ORF70 (UniProt Q5XKP0), with inactive: 0; and CCDC99 (UniProt Q96EA4), with inactive: 0.

Source of the values: the supplement of paper PMC7666118.
